In PubChem BioAssay AID493014 (National Center for Advancing Translational Sciences (NCATS), 2011):
Screen size: about 340,000 compounds; about 170 (0.05%) were called active. This list was built around the results that the source calls inconclusive (neither active nor inactive); the mix of calls is not that of the screen. Calls come from the whole dose curve; as a rule, active = well fitted inhibition curve with a large enough effect in the signal ratio, with a control signal flat (not every such curve was filed as active); inconclusive = small, poorly fitted or top-dose-only effect, or effect the other way, or a change in a side signal; inactive = flat fitted curve, though single readings scatter; the % refers to the signal ratio. Potencies of inconclusive entries are doubtful fits and often do not repeat.

Assay: qHTS Assay to Find Inhibitors of Chronic Active B-Cell Receptor Signaling;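 for activity change, negative = inhibition: plate controls were basal doxycycline-induced cells for no effect and cells given 10 µM MG132 for full effect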
Conditions: ABC-DLBCL IkBa-CBG/CBR reporter, luminescence ratio (green luciferase fused to IkBa over red control in TMD8 lymphoma cells), 4 h; activity change, negative = inhibition: at 46.1 µM (top of the series)
Summary of the method: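 Cell line TMD8 (human ABC DLBCL), stably expressing tet-inducible CBG68-IkBa fusion and CBR; IMDM/0.5% FBS; cpd up to 46 uM; dox induction, 4 h, 37C/5% CO2; dual luminescence; green/red ratio; MG132 control.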
Potency is the fitted concentration of half-maximal effect.

Q: Which Potency does the source give for `O=C(/C=C/c1ccc(N2CCOCC2)cc1)c1ccccc1` here?
A: inconclusive: 35.5 µM [falling, single point]

Q: Which Potency does the source give for `CCCC(=O)Nc1ccc(Cl)c(NC(=S)NC(=O)c2cc3ccccc3o2)c1` here?
A: inconclusive: 20.6 µM [falling, partial curve, poor fit]

Q: For `CCS(=O)(=O)NCC(c1ccco1)N1CCN(c2ccc(OC)cc2)CC1` (centres undefined), which activity change, negative = inhibition is on record?
A: inconclusive: 7.68%

Q: Which Potency does the source give for `C/C(CC(=O)Nc1ccc(Cl)c(C(F)(F)F)c1)=N\NC(=O)c1ccccc1O` here?
A: inconclusive: 9.2 µM [falling, partial curve, poor fit]

Q: Which activity change, negative = inhibition does the source give for `O=C(c1ccco1)N1CCN(CCCCOc2cccc3ccccc23)CC1` here?
A: inactive

Q: For `COc1cc2c3c(c1OC)C1(C=CC(=O)C=C1)CC3N(C(C)=O)CC2` (centres undefined), which activity change, negative = inhibition is on record?
A: inconclusive: -2.11%

Q: For `Cc1cc(/C=C\c2ccc3cc(N(C)C)ccc3[n+]2C)c(C)n1-c1ccccc1`, which Potency is on record?
A: inconclusive: 14.6 µM [rising, partial curve, poor fit]

Q: For `O=C(COc1ccc(Br)cc1Cl)N1CCN(c2ccccn2)CC1`, which activity change, negative = inhibition is on record?
A: inconclusive: 8.57%

Q: With `O=C(c1ccccc1)c1nnc(-c2ccncc2)o1` as the compound, how does the Potency read?
A: inconclusive: 29.1 µM [falling, single point]

Q: For `COc1ccc(C(=O)Nc2cc(S(=O)(=O)N3CCCC3)ccc2Cl)cc1`, which activity change, negative = inhibition is on record?
A: inconclusive: -15.7%

Q: With `COc1cc(C(=O)NCC(=O)NCCN2C(=O)S/C(=C\c3ccccc3Cl)C2=O)cc(OC)c1OC` as the compound, how does the Potency read?
A: inconclusive: 32.6 µM [falling, partial curve, poor fit]

Q: Which activity change, negative = inhibition does the source give for `Cc1noc(C)c1CN1C(=O)c2ccccc2C1=O` here?
A: inconclusive: 0.278%

Q: For `CC1=CC(C)(C)N(C(=O)CN2C(=O)CCC2=O)c2ccccc21`, which activity change, negative = inhibition is on record?
A: inconclusive: 19%

Q: Which activity change, negative = inhibition does the source give for `N=c1c2c(-c3ccccc3)c(-c3ccccc3)n(Cc3ccco3)c2ncn1Cc1ccco1` here?
A: inconclusive: -12.5%

Q: With `Cc1onc(-c2ccccc2)c1C(=O)NC(=S)NNC(=O)c1ccncc1` as the compound, how does the activity change, negative = inhibition read?
A: inconclusive: -1.03%

Q: For `O=C(COc1ccccc1F)N/N=C1\CCCc2ccccc21`, which activity change, negative = inhibition is on record?
A: inconclusive: 11.2%

Q: For `Cc1ccc(S(=O)(=O)/N=C2/NC(=O)/C(=C/c3cc([N+](=O)[O-])ccc3O)S2)cc1`, which activity change, negative = inhibition is on record?
A: inactive

Q: Which activity change, negative = inhibition does the source give for `CCCCc1ccc(NC(=O)COc2cccc3c(=O)n(C)ccc23)cc1` here?
A: inconclusive: 2.35%

Q: Which Potency does the source give for `O=C(CCC(=O)Nc1ccc(F)cc1)N/N=C/c1ccc(O)cc1O` here?
A: inconclusive: 3.16 µM [falling, full curve]

Q: For `COc1cccc(NC(=O)CCC(=O)N2CC(C)Oc3ccc(C)cc32)c1` (centres undefined), which activity change, negative = inhibition is on record?
A: inconclusive: -15.5%

Q: With `COC(=O)c1cc2sc(Cl)cc2n1CC(=O)NCCC(C)C` as the compound, how does the activity change, negative = inhibition read?
A: inconclusive: 16.4%

Q: With `CCOC(=O)Cn1cnc2c(nnn2-c2cccc(Cl)c2)c1=O` as the compound, how does the activity change, negative = inhibition read?
A: inconclusive: 6.48%

Q: With `Cc1ccc(NC2=NC(=S)N(CC#N)C23CCCCC3)cc1` as the compound, how does the activity change, negative = inhibition read?
A: inconclusive: -19.4%

Q: Which Potency does the source give for `CC1C=CCC2C(=O)N(c3cccc(C(=O)N4CCN(c5ccc(F)cc5)CC4)c3)C(=O)C12` (centres undefined) here?
A: inconclusive: 3.16 µM [falling, full curve, poor fit]

Q: With `O=C(O)c1ccc(COc2ccc3c(c2)CCC3)cc1` as the compound, how does the Potency read?
A: inconclusive: 35.5 µM [rising, single point]

Q: Which Potency does the source give for `COc1cc(/C=C2/SC(=Nc3ccc(O)cc3)NC2=O)ccc1O` here?
A: inconclusive: 3.16 µM [falling, single point]

Q: With `CCN(CC)C(=O)CSc1nc(O)c(Cc2ccccc2)c(=O)n1-c1ccccc1C` as the compound, how does the activity change, negative = inhibition read?
A: inconclusive: -4.47%

Q: With `Cn1c(CCN2CCCCC2)nc2cc(NS(=O)(=O)c3ccc(Cl)cc3)ccc21` as the compound, how does the activity change, negative = inhibition read?
A: inconclusive: -0.804%

Q: Which activity change, negative = inhibition does the source give for `COc1cc(/C=C/C(=O)OCC(=O)c2ccccc2)cc(OC)c1OC` here?
A: inconclusive: -9.34%

Q: With `Cc1ccc(NC(=O)CCNS(=O)(=O)c2cccc3nsnc23)cc1` as the compound, how does the activity change, negative = inhibition read?
A: inconclusive: -0.703%

Q: For `O=C(O)C1CC(=O)N(c2ccc(OCc3ccc(Cl)cc3Cl)cc2)C1` (centres undefined), which Potency is on record?
A: inconclusive: 20.6 µM [falling, partial curve]

Q: Which Potency does the source give for `CCOC(=O)Cc1csc(NC(=S)NC(=O)c2cc(OC)cc(OC)c2)n1` here?
A: inconclusive: 22.4 µM [cytotoxic, partial curve]

Q: With `CCOc1ccc(/C=N/NC(=O)c2nnn(-c3nonc3N)c2-c2ccc(OCC)cc2)cc1` as the compound, how does the activity change, negative = inhibition read?
A: inconclusive: 12%

Q: Which activity change, negative = inhibition does the source give for `CCC1c2ccc(C)n2CCN1C(=O)Nc1cc(Cl)ccc1OC` (centres undefined) here?
A: inconclusive: 15.5%

Q: With `O=C(NNC(=O)C1CCCO1)c1ccccc1Cl` (centres undefined) as the compound, how does the activity change, negative = inhibition read?
A: inconclusive: 1.34%

Q: Which activity change, negative = inhibition does the source give for `Cc1ccc2oc3c(c(=O)c2c1)C(c1cccc(Cl)c1)N(CCCN1CCOCC1)C3=O` (centres undefined) here?
A: inconclusive: -11.7%

Q: For `CC(=O)c1cc2c(cc1NC(=O)c1cc(C)nn1-c1ccccc1)OCO2`, which activity change, negative = inhibition is on record?
A: inconclusive: -0.617%

Q: Which activity change, negative = inhibition does the source give for `Cc1onc(-c2ccccc2)c1C(=O)Oc1cccnc1` here?
A: inconclusive: -16.8%

Q: For `COc1cccc2sc(Nc3nnc(-c4cccs4)o3)nc12`, which activity change, negative = inhibition is on record?
A: inconclusive: 264%

Q: With `Cc1nc(SCCC(=O)O)c2ccccc2n1` as the compound, how does the activity change, negative = inhibition read?
A: inconclusive: 1.85%

Q: With `Cc1cc(/C=N/n2cnnc2)c(C)n1-c1ccc(OCc2ccc(Cl)cc2Cl)cc1` as the compound, how does the activity change, negative = inhibition read?
A: inactive

Q: Which Potency does the source give for `Cc1ccccc1OCCNc1cc(N2CCCCC2)ccc1[N+](=O)[O-]` here?
A: inconclusive: 8.91 µM [rising, partial curve]

Q: For `CN(C)c1ccc(N=Nc2ccccc2Br)cc1`, which activity change, negative = inhibition is on record?
A: inconclusive: 0.94%

Q: With `CC(O)CN1CCN(C(=O)CN2C(=O)NC(c3ccccc3)(c3ccccc3)C2=O)CC1` (centres undefined) as the compound, how does the activity change, negative = inhibition read?
A: inactive

Q: Which Potency does the source give for `O=C(O)c1ccc(/C=C2\CCCc3c2nc2ccccc2c3C(=O)O)cc1` here?
A: inconclusive: 17.8 µM [falling, partial curve]

Q: With `CCOCCSC1=C(C#N)C(c2cccs2)C(C(C)=O)=C(C)N1` (centres undefined) as the compound, how does the activity change, negative = inhibition read?
A: inconclusive: 10.7%

Q: For `Cn1c(SCC(=O)NC2CC2)nnc1-c1cccs1`, which Potency is on record?
A: inconclusive: 8.91 µM [falling, partial curve]

Q: With `Cc1ncc(CO)c(/C=N/NC(=O)c2cc(Br)ccc2O)c1O` as the compound, how does the Potency read?
A: inconclusive: 10 µM [falling, partial curve]

Q: For `Cc1ccc(S(=O)(=O)N2CCOC2CNC(=O)C(=O)NCCN2CCOCC2)cc1` (centres undefined), which activity change, negative = inhibition is on record?
A: inactive

Q: Which activity change, negative = inhibition does the source give for `Nc1cc(=O)[nH]c(SCC(=O)Nc2cc([N+](=O)[O-])ccc2Cl)n1` here?
A: inconclusive: 0.297%

Q: For `CCCCn1nc(NC(=O)c2cccs2)c2cc3ccccc3nc21`, which activity change, negative = inhibition is on record?
A: inconclusive: -0.116%

Q: With `Clc1ccc(SCCOCCN2CCCCC2)cc1` as the compound, how does the activity change, negative = inhibition read?
A: inactive

Q: With `Clc1cccc(OCc2nnc(-c3ccccc3Br)o2)c1` as the compound, how does the activity change, negative = inhibition read?
A: inconclusive: 3.79%

Q: With `N/C(=N\OC(=O)c1cccc(Br)c1)c1ccccn1` as the compound, how does the Potency read?
A: inconclusive: 35.5 µM [rising, single point]

Q: With `COc1ccc(Nc2ncnc3sc(C)cc23)c(OC)c1` as the compound, how does the activity change, negative = inhibition read?
A: inconclusive: -1.6%

Q: For `COc1ccc(NC(=O)N2CCc3ccccc32)cc1`, which Potency is on record?
A: inconclusive: 23.1 µM [falling, partial curve]

Q: With `Cc1cccn2c(=O)c(/C=C(\C#N)S(=O)(=O)c3ccccc3)c(Oc3ccc(Cl)cc3)nc12` as the compound, how does the activity change, negative = inhibition read?
A: inactive

Q: Which Potency does the source give for `Nc1c(Cl)c(Cl)nc(C(=O)N/N=C/c2cccnc2)c1Cl` here?
A: inconclusive: 3.16 µM [falling, partial curve, poor fit]

Q: Which activity change, negative = inhibition does the source give for `O=C(Nc1ccccc1Oc1cccnc1)C1CCCN(Cc2cccc(Cl)c2)C1` (centres undefined) here?
A: inconclusive: -6.49%

Q: Which activity change, negative = inhibition does the source give for `O=C(Nc1cccc(Cl)c1)c1cc(F)cc2c1OCOC2` here?
A: inconclusive: 10.2%

Q: For `CC(C)CNS(=O)(=O)c1ccc(C(=O)Nc2ccc3c(c2)OCCO3)cc1`, which activity change, negative = inhibition is on record?
A: inconclusive: 4.09%

Q: For `CC(C)c1ccccc1OCC(O)CN1CCN(S(=O)(=O)c2ccc([N+](=O)[O-])cc2)CC1` (centres undefined), which activity change, negative = inhibition is on record?
A: inconclusive: 0.714%

Q: With `CCN(CCn1cccn1)Cc1cn[nH]c1-c1ccc(-c2ccccc2)cc1` as the compound, how does the Potency read?
A: inconclusive: 11.2 µM [falling, partial curve]

Q: With `CCc1sc(C(=O)Nc2ccc(NC(C)=O)cc2)cc1C` as the compound, how does the activity change, negative = inhibition read?
A: inactive

Q: For `Cc1nc(-c2ccc(S(=O)(=O)NCc3cccnc3)s2)cs1`, which activity change, negative = inhibition is on record?
A: inactive

Q: For `CCNC(=S)N/N=C(\C)c1cccc(OC)c1`, which Potency is on record?
A: inconclusive: 35.5 µM [cytotoxic, single point]

Q: For `CN1CCN(C(c2cccc(Br)c2)c2sc3nc(-c4ccco4)nn3c2O)CC1` (centres undefined), which activity change, negative = inhibition is on record?
A: inconclusive: 11.8%

Q: With `O=C(NCc1ccc(F)cc1)c1cnc2sccn2c1=O` as the compound, how does the activity change, negative = inhibition read?
A: inconclusive: 2.82%

Q: For `Cc1ccnc(NS(=O)(=O)c2ccc(N)cc2)n1`, which activity change, negative = inhibition is on record?
A: inconclusive: -21.2%

Q: With `COc1ccc(C(=O)NC2CCCc3ccccc32)cc1Br` (centres undefined) as the compound, how does the activity change, negative = inhibition read?
A: inconclusive: -16.3%

Q: Which activity change, negative = inhibition does the source give for `COCc1cc(N2CCCCC2)nc(-c2ccccc2)n1` here?
A: inactive

Q: For `CC(C)N(Cc1nc(-c2ccc(Cl)cc2)no1)C(=O)C12CC3CC(CC(C3)C1)C2`, which activity change, negative = inhibition is on record?
A: inconclusive: -0.9%

Q: Which Potency does the source give for `Cn1c(N/N=C/c2c[nH]c3ccccc23)nc2ccccc21` here?
A: inconclusive: 35.5 µM [rising, single point]

Q: With `COc1cc(NC(=O)c2ccc3c(c2)OCO3)c2ncccc2c1` as the compound, how does the activity change, negative = inhibition read?
A: inconclusive: 5.02%

Q: Which Potency does the source give for `O=C(CSc1nnnn1C1CCCC1)Nc1cccc(NC(=O)c2ccco2)c1` here?
A: inconclusive: 2.82 µM [falling, partial curve, poor fit]

Q: For `COc1ccc(O)c(-c2cc(-c3cccc(Br)c3)n[nH]2)c1`, which activity change, negative = inhibition is on record?
A: inactive

Q: Which activity change, negative = inhibition does the source give for `CCOc1ccc(N(CC(=O)NC2CCCCC2)C(=O)Cn2nnc(-c3ccc(C)o3)n2)cc1` here?
A: inactive

Q: For `Cc1c(OC(C)C(=O)NC2CC(C)(C)NC(C)(C)C2)ccc2c3c(c(=O)oc12)CCC3` (centres undefined), which activity change, negative = inhibition is on record?
A: inconclusive: -0.599%

Q: For `COc1cc(C2c3c(-c4cc(Cl)c(C)cc4O)n[nH]c3C(=O)N2Cc2cccnc2)ccc1O` (centres undefined), which activity change, negative = inhibition is on record?
A: inconclusive: -7%
